PubChem BioAssay AID1259308, NCATS – 2017
Here is one part, drawn at random, of about 59,000 reagents. Over the whole deposit, about 1,510 (2.6%) got an active call. 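Calls use total luciferase alone and ignore viability, so some active siRNAs may act by altering cell number.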 The numbers tell different reagents against one gene apart. Not all columns of the deposit are shown. No sequences are given here.

- Aim: 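Knock-downs that increase output of a recombinant reporter protein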 (primary screen)
- Cell system: human HEK293 embryonic kidney cells stably expressing firefly luciferase (HEK-CMV-Luc2-Hygro)
- Knock-down reagent: single siRNA against human genes, 0.8 pmol siRNA per well
- Time to read-out: 72 h
- Read-out: 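Luciferase light (ONE-Glo) measured on one replicate plate set and viability (CellTiter-Glo) on the other, scaled to a negative control siRNA, with robust z-scores and luciferase per cell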
- Scale: total luciferase, z-score: higher = more reporter protein produced
- Active means: 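Active when the median/MAD z-score for overall luciferase is greater than 3; a gene was taken forward for validation with new siRNAs if at least two of its three siRNAs passed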
- Meaning of the calls: active = raised luciferase; inactive = no rise

total luciferase, z-score, by gene and reagent
RBM3 (GeneID 5935): #1 -0.833 inactive; #2 -0.153 inactive; #3 0.241 inactive
BTRC (GeneID 8945): #1 -0.0406 inactive; #2 -0.431 inactive; #3 0.748 inactive
DPAGT1 (GeneID 1798): #1 0.773 inactive; #2 -0.142 inactive; #3 0.148 inactive
MAGEF1 (GeneID 64110): #1 -2.6 inactive; #2 -0.883 inactive; #3 -0.475 inactive
GMFB (GeneID 2764): #1 -0.158 inactive; #2 2.31 inactive; #3 0.124 inactive
NPHS1 (GeneID 4868): #1 0.89 inactive; #2 0.514 inactive; #3 1.42 inactive

Single entries from the entries so far:
Under “total luciferase, z-score”, GMFB (GeneID 2764) #3 reads 0.124
Result for NPHS1 (GeneID 4868) #3 in “Outcome”: inactive
Entry for DPAGT1 (GeneID 1798) #3 in “total luciferase, z-score”: 0.148
DPAGT1 (GeneID 1798) #2, total luciferase, z-score = -0.142

Continued:
total luciferase, z-score, by gene and reagent
OVOS1P (GeneID 408186): #1 -0.239 inactive; #2 0.467 inactive; #3 -0.364 inactive
LOC390282 (GeneID 390282): #1 1.59 inactive; #2 -0.83 inactive; #3 0.323 inactive
CD5 (GeneID 921): #1 -0.442 inactive; #2 -0.973 inactive; #3 -0.662 inactive
ABHD17B (GeneID 51104): #1 1.63 inactive; #2 0.347 inactive; #3 -1.38 inactive
CAMK2N2 (GeneID 94032): #1 -1.04 inactive; #2 0.569 inactive; #3 -0.998 inactive
MBP (GeneID 4155): #1 -0.084 inactive; #2 0.166 inactive; #3 0.759 inactive
SLC28A1 (GeneID 9154): #1 -0.191 inactive; #2 1.59 inactive; #3 0.665 inactive
